The record followed here is PMC3690481.

Amino acid sequences for entries named in this document (tags omitted).
UniProt Q9Y6K9: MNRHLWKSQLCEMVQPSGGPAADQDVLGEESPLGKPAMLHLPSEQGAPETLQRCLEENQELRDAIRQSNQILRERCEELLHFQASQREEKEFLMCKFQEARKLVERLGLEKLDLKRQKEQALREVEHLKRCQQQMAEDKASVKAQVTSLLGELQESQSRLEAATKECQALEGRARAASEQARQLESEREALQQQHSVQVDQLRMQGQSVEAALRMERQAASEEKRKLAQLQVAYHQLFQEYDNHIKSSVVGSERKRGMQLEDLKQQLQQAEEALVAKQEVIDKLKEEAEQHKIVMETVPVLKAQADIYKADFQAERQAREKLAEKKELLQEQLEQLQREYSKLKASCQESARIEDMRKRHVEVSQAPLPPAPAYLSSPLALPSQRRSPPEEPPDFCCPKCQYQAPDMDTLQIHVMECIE

The experiment concerns the target GST-tagged NEMO wild-type (UniProt Q9Y6K9). The experiment can be described thus: pull-down; GST-NEMO transfected with or without LUBAC into doxycycline-induced control or OTULIN-overexpressing T-REx 293 cells; lysate in PBS, 0.1% Triton X-100, 2 mM NEM on GSH sepharose overnight; western blot. For orientation: In western blotting, separated proteins are transferred to a membrane and probed.

These are yes or no findings as the source states them, for the method shown. In cells and extracts the contact can be indirect. Some binding calls cover weakened binding; strength is not graded here.

B1: SHARPIN (transfected LUBAC component) (protein, UniProt Q9H0F6 1-387)
chain: MAPPAGGAAAAASDLGSAAVLLAVHAAVRPLGAGPDAEAQLRRLQLSADPERPGRFRLELLGAGPGAVNLEWPLESVSYTIRGPTQHELQPPPGGPGTLSLHFLNPQEAQRWAVLVRGATVEGQNGSKSNSPPALGPEACPVSLPSPPEASTLKGPPPEADLPRSPGNLTEREELAGSLARAIAGGDEKGAAQVAAVLAQHRVALSVQLQEACFPPGPIRLQVTLEDAASAASAASSAHVALQVHPHCTVAALQEQVFSELGFPPAVQRWVIGRCLCVPERSLASYGVRQDGDPAFLYLLSAPREAPATGPSPQHPQKMDGELGRLFPPSLGLPPGPQPAASSLPSPLQPSWSCPSCTFINAPDRPGCEMCSTQRPCTWDPLAAAST
For B1, the binding result is “binds”.
